The supplement of paper PMC8728848
Some of the results follow.

How the values were obtained:
Assay in all cases: glycan array binding signal (z-score within array); higher = stronger binding
Conditions in all cases: glycan notation: IUPAC condensed, linker removed
[1] = target: Gal(b1-4)GlcNAc(b1-2)Man(a1-3)[Gal(b1-4)GlcNAc(b1-2)Man(a1-6)]Man(b1-4)GlcNAc(b1-4)[Fuc(a1-6)]GlcNAc
Summary of the method: (§1)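 The binding signal is a Z-score computed within each array and averaged over linkers. Arrays of the same protein sequence at different concentrations or buffers were also averaged together. Data originate from 3228 arrays in the Consortium for Functional Glycomics database, kept only where the protein sequence was available.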

[2] = target: Gal(b1-4)GlcNAc(b1-2)Man(a1-3)[Gal(b1-4)GlcNAc(b1-2)Man(a1-6)][Gal(b1-4)GlcNAc(b1-4)]Man(b1-4)GlcNAc(b1-4)[Fuc(a1-6)]GlcNAc
Summary of the method: as §1

[3] = target: Gal(b1-4)GlcNAc(b1-2)Man(a1-3)[Gal(b1-4)GlcNAc(b1-2)Man(a1-6)][GlcNAc(b1-4)]Man(b1-4)GlcNAc(b1-4)[Fuc(a1-6)]GlcNAc
Summary of the method: as §1

[4] = target: Gal(b1-4)GlcNAc(b1-2)Man(a1-3)[GlcNAc(b1-2)Man(a1-6)]Man(b1-4)GlcNAc(b1-4)GlcNAc
Summary of the method: as §1

[5] = target: Gal(b1-4)GlcNAc(b1-2)Man(a1-3)[GlcNAc(b1-4)][Gal(b1-4)GlcNAc(b1-2)Man(a1-6)]Man(b1-4)GlcNAc(b1-4)GlcNAc
Summary of the method: as §1

[6] = target: Gal(b1-4)GlcNAc(b1-2)Man(a1-3)[Man(a1-6)]Man(b1-4)GlcNAc(b1-4)GlcNAc
Summary of the method: as §1

[7] = target: Gal(b1-4)GlcNAc(b1-2)Man(a1-6)Man(b1-4)GlcNAc(b1-4)GlcNAc
Summary of the method: as §1

[8] = target: Gal(b1-4)GlcNAc(b1-2)Man(a1-6)[GlcNAc(b1-2)Man(a1-3)]Man(b1-4)GlcNAc(b1-4)GlcNAc
Summary of the method: as §1

[9] = target: Gal(b1-4)GlcNAc(b1-2)Man(a1-6)[Man(a1-3)]Man(b1-4)GlcNAc(b1-4)GlcNAc
Summary of the method: as §1

[10] = target: Gal(b1-4)GlcNAc(b1-2)[Gal(b1-4)GlcNAc(b1-4)]Man(a1-3)[Gal(b1-4)GlcNAc(b1-2)Man(a1-6)]Man(b1-4)GlcNAc(b1-4)GlcNAc
Summary of the method: as §1

[11] = target: Gal(b1-4)GlcNAc(b1-2)[Gal(b1-4)GlcNAc(b1-4)]Man(a1-3)[Gal(b1-4)GlcNAc(b1-2)[Gal(b1-4)GlcNAc(b1-6)]Man(a1-6)]Man(b1-4)GlcNAc(b1-4)GlcNAc
Summary of the method: as §1

[12] = target: Gal(b1-4)GlcNAc(b1-2)[Gal(b1-4)GlcNAc(b1-4)]Man(a1-3)[GlcNAc(b1-4)][Gal(b1-4)GlcNAc(b1-2)Man(a1-6)]Man(b1-4)GlcNAc(b1-4)GlcNAc
Summary of the method: as §1

[13] = target: Gal(b1-4)GlcNAc(b1-2)[Gal(b1-4)GlcNAc(b1-4)]Man(a1-3)[GlcNAc(b1-4)][Gal(b1-4)GlcNAc(b1-2)[Gal(b1-4)GlcNAc(b1-6)]Man(a1-6)]Man(b1-4)GlcNAc(b1-4)GlcNAc
Summary of the method: as §1

[14] = target: Gal(b1-4)GlcNAc(b1-2)[Gal(b1-4)GlcNAc(b1-6)]Man(a1-6)[Gal(b1-4)GlcNAc(b1-2)Man(a1-3)]Man(b1-4)GlcNAc(b1-4)GlcNAc
Summary of the method: as §1

[15] = target: Gal(b1-4)GlcNAc(b1-2)[Gal(b1-4)GlcNAc(b1-6)]Man(a1-6)[Gal(b1-4)GlcNAc(b1-2)Man(a1-3)]Man(b1-4)GlcNAc(b1-4)[Fuc(a1-6)]GlcNAc
Summary of the method: as §1

[16] = target: Gal(b1-4)GlcNAc(b1-2)[Gal(b1-4)GlcNAc(b1-6)]Man(a1-6)[GlcNAc(b1-4)][Gal(b1-4)GlcNAc(b1-2)Man(a1-3)]Man(b1-4)GlcNAc(b1-4)GlcNAc
Summary of the method: as §1

[17] = target: Gal(b1-4)GlcNAc(b1-2)[Gal(b1-4)GlcNAc(b1-6)]Man(a1-6)[GlcNAc(b1-4)][Gal(b1-4)GlcNAc(b1-2)[Gal(b1-4)GlcNAc(b1-4)]Man(a1-3)]Man(b1-4)GlcNAc(b1-4)[Fuc(a1-6)]GlcNAc
Summary of the method: as §1

[18] = target: Gal(b1-4)GlcNAc(b1-3)Gal(b1-3)GalNAc
Summary of the method: as §1

[19] = target: Gal(b1-4)GlcNAc(b1-3)Gal(b1-3)GlcNAc
Summary of the method: as §1

B1: PX9961K-bvu-480-28-480 (Bacteroides vulgatus) (protein)
chain: NKIPTTMAFRTVTDVDNAVNGLYDLMSGSGYYGAAMFAYGDMKGDDMQSSEESGVCNTCYMFNHRPNSLNAGSLWGRPFYILREAWNILNAIAEGKIESGDEKKLNALKGETMAVIALCQFDLTRCFGYPYTKDKGASLGAPLIDHLVGTYENPPRSTVAQAYDFIIETLEEAVTLMSEEKNNGRMNKYAARALLARIYLYHDDNRKAFDLADQLIKDADTSGSYALYPHEKYVAAWSVEAKFGSESFFEIANSVDDTPGRDSWGYLLNWYGYQKGFVTQKYAEQMLADPGDVRGHLLEENKYAGKTVWWLYKLRGTDLKTAPLECNNVVLRLSEVYLIAAEAGCKLGGDAAVQGLGYLNEIVKRGNPDNEVTMADYTLDRVLDERSKELVGEGHRFFDLLRNGKTIVRKGGYHLPSVDEEVDWDFYKCVLPIPEDQFIFSPEMEQNPGYPKN
For B1, the “glycan array binding signal (z-score)” value [1] was 0.939, the “glycan array binding signal (z-score)” value [2] was -0.167 and the “glycan array binding signal (z-score)” value [3] was -0.521. For the same binder, the “glycan array binding signal (z-score)” value [4] was 0.42, the “glycan array binding signal (z-score)” value [5] was -0.407 and the “glycan array binding signal (z-score)” value [6] was 0.569. The “glycan array binding signal (z-score)” value [7] was -0.347, the “glycan array binding signal (z-score)” value [8] was -0.606 and the “glycan array binding signal (z-score)” value [9] was -0.775. The “glycan array binding signal (z-score)” value [10] was 1.4, the “glycan array binding signal (z-score)” value [11] was 0.452 and the “glycan array binding signal (z-score)” value [12] was -0.122. For the same binder, the “glycan array binding signal (z-score)” value [13] was 0.328, the “glycan array binding signal (z-score)” value [14] was 0.246 and the “glycan array binding signal (z-score)” value [15] was 0.228. For the same binder, the “glycan array binding signal (z-score)” value [16] was -0.251, the “glycan array binding signal (z-score)” value [17] was 0.362 and the “glycan array binding signal (z-score)” value [18] was -0.538. The “glycan array binding signal (z-score)” value [19] was -0.821.
